Test results reported in PubChem BioAssay AID720711 (National Center for Advancing Translational Sciences (NCATS), 2013).
The whole screen tested about 360,000 compounds, of which about 290 (0.081%) were called active. The inconclusive results got no clear call from the source; some entries with a clear call stand among them for comparison. The call rests on the fitted dose curve; in most records, active means well fitted activation curve with a large enough effect; inconclusive means small, poorly fitted or top-dose-only effect; inactive means no such curve, though single readings can be large or run the other way. Potencies beside an inconclusive call are fits to weak or partial responses and may not hold up.
Further: nearly all actives have a fitted effect of over 50% in size.
Potency means the concentration at half of the fitted maximal effect.

Sequences of proteins named here, by UniProt entry; tags and fusion partners are left off.
UniProt Q8WZA2, whole entry, looked up: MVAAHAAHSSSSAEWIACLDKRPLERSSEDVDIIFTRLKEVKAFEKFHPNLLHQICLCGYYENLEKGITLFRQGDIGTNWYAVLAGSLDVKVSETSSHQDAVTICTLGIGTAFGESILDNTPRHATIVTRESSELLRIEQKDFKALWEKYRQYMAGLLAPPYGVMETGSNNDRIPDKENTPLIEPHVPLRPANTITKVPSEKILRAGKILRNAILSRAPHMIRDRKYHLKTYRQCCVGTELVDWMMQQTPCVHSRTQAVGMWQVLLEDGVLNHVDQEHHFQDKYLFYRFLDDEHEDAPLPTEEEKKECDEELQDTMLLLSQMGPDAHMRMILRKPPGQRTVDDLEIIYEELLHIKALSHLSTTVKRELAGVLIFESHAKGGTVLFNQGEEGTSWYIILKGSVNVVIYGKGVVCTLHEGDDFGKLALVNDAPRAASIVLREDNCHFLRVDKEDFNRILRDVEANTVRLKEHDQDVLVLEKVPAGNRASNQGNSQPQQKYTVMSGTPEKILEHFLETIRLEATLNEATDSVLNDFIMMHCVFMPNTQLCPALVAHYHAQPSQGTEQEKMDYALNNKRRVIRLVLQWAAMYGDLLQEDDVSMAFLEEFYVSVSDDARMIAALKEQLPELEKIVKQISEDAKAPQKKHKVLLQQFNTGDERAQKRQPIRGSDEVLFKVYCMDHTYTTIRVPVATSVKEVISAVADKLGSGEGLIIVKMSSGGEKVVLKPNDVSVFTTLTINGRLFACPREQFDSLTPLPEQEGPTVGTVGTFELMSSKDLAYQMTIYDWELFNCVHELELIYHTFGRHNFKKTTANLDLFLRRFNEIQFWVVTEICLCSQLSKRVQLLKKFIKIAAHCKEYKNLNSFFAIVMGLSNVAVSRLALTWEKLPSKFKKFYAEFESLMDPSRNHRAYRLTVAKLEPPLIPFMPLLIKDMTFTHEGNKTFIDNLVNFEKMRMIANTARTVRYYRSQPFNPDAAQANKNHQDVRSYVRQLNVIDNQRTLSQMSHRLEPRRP

What follows are molecules tested against Rap guanine nucleotide exchange factor 4 (Homo sapiens) (UniProt Q8WZA2) (assay: qHTS for Agonist of cAMP-regulated guanine nucleotide exchange factor 4 (EPAC2): primary screen). Settings: biochemical qHTS; Potency: EPAC2 activation unless noted; activation: at 154 µM (top of the series), 100% = 6.5 mM cAMP response unless noted.
How it was run: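 Nucleotide exchange monitored as fluorescence drop when BODIPY-GDP leaves Rap1B. Reaction: 100 nM EPAC2, 250 nM RAP1B-BODIPY-GDP, 50 uM GDP, room temperature, kinetic read over 30 min. Activity expressed relative to 6.5 mM cAMP.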
With `CCC1C2CN(C(C)=O)CC=C2C(C#N)=C(N)C1(C#N)C#N` (configuration not stated) the Potency was inconclusive: 112 µM [activator, single point]. `COc1ccc(NC(=O)Cn2nnc(C(=O)NCc3ccco3)c2N)cc1` was tested, and the Potency was inconclusive: 126 µM [activator, single point]. With `COc1ccc(CN2CCC[C@]3(N[C@H](c4ccccc4)[C@@H]4C(=O)N(Cc5ccccc5)C(=O)[C@@H]43)C2=O)cc1` the Potency was inconclusive: 126 µM [activator, partial curve, poor fit]. With `Cc1nn(C)c(Nc2ccc(Br)cc2)c1Br` the Potency was “inactive”. With `CCOc1ncccc1C(=O)NCc1ccc(OC)c(OC)c1` the Potency was “inactive”. With `O=C(Cn1cccc1C(=O)c1ccccc1)NCCN1CCCCCC1` the activation was inconclusive: 98.9% [activator] [at 15.6 µM, 100% = 6.5 mM cAMP response]. `CCCCC(=O)Nc1c(-c2ccc(OC)c(OC)c2)c(=O)c2ccccc2n1C` was tested, and the Potency was “inactive”. For `Cc1cc(N2CCN(S(=O)(=O)c3ccc(Cl)c(Cl)c3)CC2)c2ccccc2n1`, the Potency was “inactive”. `Cc1ccc(C2(C)NC(=O)N(CCOc3ccccc3)C2=O)cc1` (configuration not stated) was tested, and the activation was inconclusive: 87.5% [activator] [at 15.6 µM, 100% = 6.5 mM cAMP response]. `N#CC1=C(N)Oc2cc(N)ccc2C1c1cccc(Br)c1` (configuration not stated) was tested, and the Potency was inconclusive: 89.1 µM [activator, partial curve]. In the case of `CC(=O)c1cc(C#N)c(N(C)Cc2ccccc2)nc1C`, the Potency was “inactive”. For `Cc1c(-n2cc(C(=O)c3cc(F)ccc3O)cc(C#N)c2=O)c(=O)n(-c2ccccc2)n1C`, the Potency was “inactive”. With `O=C(NC1CCCC1)c1cccc2c1C(=O)c1ccc(N3CCCCC3)cc1S2(=O)=O` the Potency was active: 56.2 µM. For `NC(c1csc(NC(=O)Nc2ccc(OC(F)(F)F)cc2)n1)C1CCCCC1` (configuration not stated), the Potency was “inactive”. `O=C1c2ccccc2S(=O)(=O)c2cc(N3CCC4(CC3)OCCO4)ccc21` was tested, and the Potency was active: 112 µM. With `CCOC(=O)C1=C(Cc2ccc(OC)cc2)C(=O)c2ccccc2C1=O` the Potency was inconclusive: 112 µM [activator, single point]. In the case of `O=C(Nc1ccc(N2CCOCC2)cc1)C1CC(=O)N(c2ccc(Cl)cc2)C1` (configuration not stated), the Potency was inconclusive: 112 µM [activator, single point]. `CC(C)N(C(=O)Nc1ccc2nsnc2c1)C(C)C` was tested, and the Potency was inconclusive: 100 µM [activator, partial curve]. In the case of `Cc1ccccc1CS(=O)(=O)c1ncc(Cl)c(C(=O)Nc2ccc(F)cc2)n1`, the Potency was “inactive”. For `C=Cc1c(C)c2cc3[nH]c(cc4nc(cc5nc(cc1[nH]2)C(C)=C5CCC(=O)O)C(CCC(=O)O)=C4C)c(C)c3C=C`, the Potency was “inactive”. For `CC(C)N1CCc2c(sc(NC(=O)c3ccc(S(=O)(=O)N4CCOCC4)cc3)c2C#N)C1`, the Potency was active: 100 µM. With `CCOC(=O)C1=CCC(c2ccccc2)N(S(=O)(=O)c2ccccc2[N+](=O)[O-])C1` (configuration not stated) the Potency was “inactive”. With `COc1ccc(NC(=S)c2ccccc2)cc1` the Potency was “inactive”. In the case of `Cc1cc(C(=O)CSc2nn3c(=O)c(C(C)(C)C)nnc3s2)c(C)n1-c1ccc(F)cc1`, the activation was inconclusive: 107% [activator] [at 15.6 µM, 100% = 6.5 mM cAMP response]. `CCOc1ccc(NC(=O)c2ccc3c(c2)CCN3S(C)(=O)=O)cc1` was tested, and the Potency was inconclusive: 50.1 µM [activator, single point]. With `Cc1cc(N2C(=O)C3CC=CCC3C2=O)cc(C)c1Br` (configuration not stated) the Potency was inconclusive: 112 µM [activator, single point]. For `C[C@@H]1CCCCO[C@H](CN(C)C(=O)Nc2ccc3c(c2)OCO3)[C@H](C)CN([C@@H](C)CO)C(=O)c2cc(NS(=O)(=O)c3ccc(Cl)cc3)ccc2O1`, the Potency was “inactive”. `O=C(CN1CCSC1=NCc1ccccc1)c1ccccc1` was tested, and the Potency was inconclusive: 112 µM [activator, single point]. With `COc1cccc(N2CC(C(=O)Nc3c(C)cccc3C)CC2=O)c1` (configuration not stated) the Potency was inconclusive: 112 µM [activator, single point]. With `O=C(O)c1ccc(N2CCCCCC2)c(N2C(=O)c3ccccc3C2=O)c1` the Potency was “inactive”. In the case of `CCCN1C(=O)/C(=C/c2c(NCCCOC(C)C)nc3c(C)cccn3c2=O)SC1=S`, the Potency was inconclusive: 126 µM [activator, partial curve, poor fit]. With `O=C(Nc1cc2c(oc1=O)CCCC2=O)c1ccc(Cl)cc1` the Potency was “inactive”. With `O=C(Nc1ccc2c(c1)OCCO2)C(=O)c1c[nH]c2ccccc12` the Potency was “inactive”. With `Cc1nc2ccc(S(=O)(=O)Nc3cccc(-c4nc5cccnc5s4)c3C)cc2s1` the Potency was inconclusive: 20 µM [activator, full curve, poor fit]. For `COc1ccc(C(=O)NC(=S)NNC(=O)c2ccc3ccccc3n2)cc1`, the Potency was inconclusive: 126 µM [activator, single point]. `Cc1cc(=O)oc(C)c1C(=O)Nc1ccc2ncccc2c1` was tested, and the Potency was inconclusive: 89.1 µM [activator, partial curve]. For `N/C(=N\OC(=O)c1cccc(Br)c1)c1ccncc1`, the Potency was “inactive”. `CCCNC(=O)C1(C)CCCN(Cc2ccc(-c3ccccc3)o2)C1` (configuration not stated) was tested, and the Potency was “inactive”. For `O=C(CSc1nnc(-c2ccccc2)n1C1CCCCC1)Nc1ccc(S(=O)(=O)Nc2ccccn2)cc1`, the activation was inconclusive: 44.8% [activator] [at 15.6 µM, 100% = 6.5 mM cAMP response]. `CCOC(=O)c1c(NC(=O)/C=C/c2ccc3c(c2)OCO3)sc(C)c1CC` was tested, and the Potency was active: 6.31 µM. In the case of `Cc1onc(-c2ccccc2Cl)c1C(=O)NC(=S)Nc1ccccc1F`, the Potency was inconclusive: 112 µM [activator, partial curve]. In the case of `CC(C)N1C(=O)CCC1C(=O)N1CCN(c2ccccn2)CC1` (configuration not stated), the Potency was inconclusive: 50.1 µM [activator, single point]. In the case of `COC(=O)CCSc1cc([N+](=O)[O-])cc2c1c(C1OCCO1)nn2-c1ccccc1`, the Potency was inconclusive: 112 µM [activator, partial curve, poor fit]. `N#C/C(=C\c1ccc(N2CCCCC2)o1)C(=O)Nc1cccc(Br)c1` was tested, and the Potency was inconclusive: 126 µM [activator, single point]. For `CN(C)c1cc(Cl)c2nonc2c1N`, the Potency was “inactive”. `Clc1ccc(CON/C=N/c2ncnc3sccc23)cc1` was tested, and the Potency was active: 7.94 µM. In the case of `O=C(N/N=C/c1ccncc1)c1cccc(NC(=O)c2ccc(Cl)cc2)c1`, the Potency was inconclusive: 89.1 µM [activator, partial curve]. For `N#C/C(=C\c1cccs1)C(=O)NCc1ccccc1`, the Potency was “inactive”. `CC(=O)Nc1ccc(/C(C)=N/NC(=O)c2ccc(COc3ccccc3Cl)o2)cc1` was tested, and the Potency was inconclusive: 126 µM [activator, single point]. With `COc1ccccc1/C=C/C=C1\Oc2c(ccc(O)c2CN2CCN(CCO)CC2)C1=O` the Potency was inconclusive: 112 µM [activator, single point]. With `CCOC(=O)CSc1nc(C)cc(C)c1C#N` the Potency was inconclusive: 126 µM [activator, single point]. With `CCN=c1scc(C)n1/N=C/c1cc(Br)c(O)c(OC)c1` the activation was inconclusive: 30.6% [activator]. `O=C(CC12CC3CC(CC(C3)C1)C2)N/N=C\c1ccc[nH]1` was tested, and the Potency was inconclusive: 22.4 µM [activator, single point]. For `O=C(CCn1cccn1)N1CCCC(N2CCN(c3cccc(C(F)(F)F)c3)CC2)C1` (configuration not stated), the Potency was inconclusive: 35.5 µM [activator, single point]. For `CC(=O)c1ccc2c(c1)c(C#N)c1ccccc1[n+]2[O-]`, the Potency was inconclusive: 126 µM [activator, single point]. With `C/C(=N\N=C(/N)SC1CC(=O)N(c2ccc(Br)cc2)C1=O)c1cccs1` (configuration not stated) the Potency was inconclusive: 63.1 µM [activator, partial curve]. In the case of `COc1cc(OC)c2c(-c3ccccc3)cc(=O)oc2c1C(CCN1CCCCC1)c1ccc2c(c1)OCO2` (configuration not stated), the Potency was “inactive”. With `O=c1nc2s/c(=C\c3ccc(-c4ccccc4[N+](=O)[O-])o3)c(=O)n2nc1-c1ccccc1` the Potency was active: 70.8 µM. For `COc1ccc(NC(=O)c2cccnc2NCCc2ccccc2)cc1`, the Potency was active: 31.6 µM. With `O=[N+]([O-])/C=C/c1cn(Cc2ccc(F)cc2)c2ccccc12` the Potency was inconclusive: 100 µM [activator, partial curve]. `CCN(CC)c1nc(C#N)cc(-c2ccc(OC)cc2)n1` was tested, and the activation was inconclusive: 57.3% [activator] [at 15.6 µM, 100% = 6.5 mM cAMP response]. In the case of `Cc1ccc(NC(=O)C2CCN(c3ncnc4sc(C)c(C)c34)CC2)cc1S(=O)(=O)N(C)C`, the Potency was “inactive”. With `Cc1cccc(CN(CC(=O)N/N=C/c2ccco2)S(=O)(=O)c2ccc(Cl)cc2)c1` the Potency was inconclusive: 100 µM [activator, partial curve]. With `O=C(COC(=O)c1ccc[nH]c1=O)NC1CC1` the Potency was “inactive”. For `Cn1cnnc1SC(C(=O)Nc1ccc(F)cc1)c1ccccc1` (configuration not stated), the activation was inconclusive: 809% [activator] [at 15.6 µM, 100% = 6.5 mM cAMP response]. With `CNC[C@@H]1OCc2ccccc2-c2ccccc2C(=O)N([C@@H](C)CO)C[C@@H]1C` the Potency was “inactive”. With `CCN1CC=C2C(C#N)=C(N)C(C#N)(C#N)C(CCc3ccccc3)C2C1` (configuration not stated) the Potency was active: 50.1 µM. `CCC(C)NCCCOc1ccc(Cl)cc1C(C)(C)C` (configuration not stated) was tested, and the Potency was “inactive”. In the case of `O=C(Cn1nnc2ccccc21)Nc1ccc([N+](=O)[O-])cc1`, the Potency was “inactive”. With `O=C(COc1ccc(F)cc1)Nc1nccs1` the Potency was active: 35.5 µM. For `Nc1ccc(-c2c3ccc(=O)cc-3oc3cc(O)ccc23)c(C(=O)O)c1`, the Potency was active: 126 µM. With `COc1ccc(N/C=C2\CCc3ccccc3C2=O)cc1` the Potency was active: 100 µM.
